Literature values in US20090004248A1, “DUAL PORTION DOSAGE LOZENGE FORM” (priority 2007, published 2009).
Residues, ends and D or L forms follow the SMILES beside them.

details: level of sweetness relative to sucrose; sucrose is the standard with index 1

Compound	sweetness index
CC1=CC(=O)[N-]S(=O)(=O)O1.[K+] [Acesulfame K]	200
COC(=O)[C@H](Cc1ccccc1)NC(=O)[C@@H](N)CC(=O)O [Aspartame] (H-Asp-Phe-OMe)	180
O=C(CO)[C@@H](O)[C@H](O)[C@H](O)CO [Fructose]	1.2-1.7
OC[C@@H](O)[C@@H](O)[C@H](O)[C@H](O)CO [Mannitol]	0.7
O=C1NS(=O)(=O)c2ccccc21 [Saccharin]	300
OC[C@@H](O)[C@@H](O)[C@H](O)[C@@H](O)CO [Sorbitol]	0.54-0.7
OC[C@H]1O[C@H](O[C@]2(CCl)O[C@H](CCl)[C@@H](O)[C@@H]2O)[C@H](O)[C@@H](O)[C@H]1Cl [Sucralose]	600
OC[C@H]1O[C@@](CO)(O[C@H]2O[C@H](CO)[C@@H](O)[C@H](O)[C@H]2O)[C@@H](O)[C@@H]1O [Sucrose]	1
OC[C@@H](O)[C@H](O)[C@@H](O)CO [Xylitol]	1.0
